The targets with a hit were mostly taken out for another list; the other results follow. Single values of this set are uncertain. Only a part is listed here, and it is no random draw.
Compound: COC(=O)/C=C/c1ccccc1 [methyl cinnamate]
Experiment: log2 ratio of iodoacetamide-alkyne labeling of the cysteine site, DMSO over compound (competition); higher = stronger covalent engagement of the cysteine by the compound, active = 1 or more
Conditions: 500 µM; treatment time 1 h; system: HEK293T cell lysate
Method in brief: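 Reporter intensities give each cysteine's log2 competition ratio as the mean of control channels over the mean of compound channels. The samples were HEK293T lysate (2 mg/mL) given vehicle or electrophile (500 µM, 1 h, ambient temperature), then iodoacetamide alkyne (1 h), followed by click coupling to sCIP-TMT reagents, pooling, trypsin digestion overnight at 37 °C, streptavidin enrichment, acid elution, Orbitrap Eclipse LC-MS/MS with FAIMS and FragPipe quantification. Duplicate channels and three replicates were run, and cysteines quantified in only one replicate were discarded.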

Chains of the proteins cited; added tags and fusions are not shown. Lines headed by an entry give the natural chain unless they say otherwise; changes in a name come on top.
UniProt O14818: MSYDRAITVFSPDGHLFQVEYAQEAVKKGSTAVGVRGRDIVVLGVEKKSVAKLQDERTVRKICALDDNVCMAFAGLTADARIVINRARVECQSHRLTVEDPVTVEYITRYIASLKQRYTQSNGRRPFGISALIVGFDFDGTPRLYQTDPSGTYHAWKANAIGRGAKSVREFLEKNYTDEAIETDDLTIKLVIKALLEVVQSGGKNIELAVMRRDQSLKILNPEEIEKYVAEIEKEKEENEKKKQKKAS
UniProt O00418: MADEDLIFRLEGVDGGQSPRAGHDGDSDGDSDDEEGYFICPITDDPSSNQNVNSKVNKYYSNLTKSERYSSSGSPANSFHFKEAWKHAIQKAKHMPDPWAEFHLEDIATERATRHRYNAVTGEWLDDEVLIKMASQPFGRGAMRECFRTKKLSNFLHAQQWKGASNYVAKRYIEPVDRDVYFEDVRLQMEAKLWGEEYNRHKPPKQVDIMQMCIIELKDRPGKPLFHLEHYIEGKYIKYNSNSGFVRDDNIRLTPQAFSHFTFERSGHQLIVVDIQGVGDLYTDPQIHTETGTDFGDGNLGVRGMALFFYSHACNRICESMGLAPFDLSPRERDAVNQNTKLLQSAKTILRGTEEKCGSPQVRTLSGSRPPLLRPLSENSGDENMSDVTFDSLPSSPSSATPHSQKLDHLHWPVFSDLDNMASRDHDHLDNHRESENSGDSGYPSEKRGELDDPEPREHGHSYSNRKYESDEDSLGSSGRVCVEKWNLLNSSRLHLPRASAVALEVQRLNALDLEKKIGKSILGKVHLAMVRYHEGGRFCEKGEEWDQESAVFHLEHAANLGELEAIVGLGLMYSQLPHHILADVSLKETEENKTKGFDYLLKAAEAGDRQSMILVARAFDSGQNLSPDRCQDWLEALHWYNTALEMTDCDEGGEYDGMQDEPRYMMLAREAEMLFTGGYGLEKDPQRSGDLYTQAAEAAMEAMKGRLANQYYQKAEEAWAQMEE
UniProt O14530: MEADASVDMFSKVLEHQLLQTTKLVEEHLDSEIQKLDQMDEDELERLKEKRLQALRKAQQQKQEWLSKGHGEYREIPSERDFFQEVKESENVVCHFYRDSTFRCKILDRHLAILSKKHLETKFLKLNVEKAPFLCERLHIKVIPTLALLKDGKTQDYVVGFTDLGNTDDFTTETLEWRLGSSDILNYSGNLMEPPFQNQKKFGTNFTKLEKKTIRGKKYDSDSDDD
UniProt O00161: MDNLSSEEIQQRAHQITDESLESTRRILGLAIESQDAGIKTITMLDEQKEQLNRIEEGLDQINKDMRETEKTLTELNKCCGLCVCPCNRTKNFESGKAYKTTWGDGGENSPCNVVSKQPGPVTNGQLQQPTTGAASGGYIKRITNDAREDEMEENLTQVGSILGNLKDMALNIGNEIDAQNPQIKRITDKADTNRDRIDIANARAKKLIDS
UniProt O15355: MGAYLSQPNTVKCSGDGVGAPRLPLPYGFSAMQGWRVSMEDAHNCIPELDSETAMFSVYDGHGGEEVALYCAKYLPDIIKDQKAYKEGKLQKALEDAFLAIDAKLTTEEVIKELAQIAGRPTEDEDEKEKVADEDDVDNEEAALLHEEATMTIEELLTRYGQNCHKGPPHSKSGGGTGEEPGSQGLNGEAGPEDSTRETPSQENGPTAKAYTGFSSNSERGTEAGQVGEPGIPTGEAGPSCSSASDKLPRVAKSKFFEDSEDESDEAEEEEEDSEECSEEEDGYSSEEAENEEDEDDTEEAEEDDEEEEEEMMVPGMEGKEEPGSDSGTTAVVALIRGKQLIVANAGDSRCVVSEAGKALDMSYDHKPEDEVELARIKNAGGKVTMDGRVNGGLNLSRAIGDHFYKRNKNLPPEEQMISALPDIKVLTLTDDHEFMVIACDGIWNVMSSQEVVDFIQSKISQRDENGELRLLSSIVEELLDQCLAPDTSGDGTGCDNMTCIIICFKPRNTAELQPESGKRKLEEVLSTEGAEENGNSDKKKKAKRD
UniProt O15020, whole entry, looked up: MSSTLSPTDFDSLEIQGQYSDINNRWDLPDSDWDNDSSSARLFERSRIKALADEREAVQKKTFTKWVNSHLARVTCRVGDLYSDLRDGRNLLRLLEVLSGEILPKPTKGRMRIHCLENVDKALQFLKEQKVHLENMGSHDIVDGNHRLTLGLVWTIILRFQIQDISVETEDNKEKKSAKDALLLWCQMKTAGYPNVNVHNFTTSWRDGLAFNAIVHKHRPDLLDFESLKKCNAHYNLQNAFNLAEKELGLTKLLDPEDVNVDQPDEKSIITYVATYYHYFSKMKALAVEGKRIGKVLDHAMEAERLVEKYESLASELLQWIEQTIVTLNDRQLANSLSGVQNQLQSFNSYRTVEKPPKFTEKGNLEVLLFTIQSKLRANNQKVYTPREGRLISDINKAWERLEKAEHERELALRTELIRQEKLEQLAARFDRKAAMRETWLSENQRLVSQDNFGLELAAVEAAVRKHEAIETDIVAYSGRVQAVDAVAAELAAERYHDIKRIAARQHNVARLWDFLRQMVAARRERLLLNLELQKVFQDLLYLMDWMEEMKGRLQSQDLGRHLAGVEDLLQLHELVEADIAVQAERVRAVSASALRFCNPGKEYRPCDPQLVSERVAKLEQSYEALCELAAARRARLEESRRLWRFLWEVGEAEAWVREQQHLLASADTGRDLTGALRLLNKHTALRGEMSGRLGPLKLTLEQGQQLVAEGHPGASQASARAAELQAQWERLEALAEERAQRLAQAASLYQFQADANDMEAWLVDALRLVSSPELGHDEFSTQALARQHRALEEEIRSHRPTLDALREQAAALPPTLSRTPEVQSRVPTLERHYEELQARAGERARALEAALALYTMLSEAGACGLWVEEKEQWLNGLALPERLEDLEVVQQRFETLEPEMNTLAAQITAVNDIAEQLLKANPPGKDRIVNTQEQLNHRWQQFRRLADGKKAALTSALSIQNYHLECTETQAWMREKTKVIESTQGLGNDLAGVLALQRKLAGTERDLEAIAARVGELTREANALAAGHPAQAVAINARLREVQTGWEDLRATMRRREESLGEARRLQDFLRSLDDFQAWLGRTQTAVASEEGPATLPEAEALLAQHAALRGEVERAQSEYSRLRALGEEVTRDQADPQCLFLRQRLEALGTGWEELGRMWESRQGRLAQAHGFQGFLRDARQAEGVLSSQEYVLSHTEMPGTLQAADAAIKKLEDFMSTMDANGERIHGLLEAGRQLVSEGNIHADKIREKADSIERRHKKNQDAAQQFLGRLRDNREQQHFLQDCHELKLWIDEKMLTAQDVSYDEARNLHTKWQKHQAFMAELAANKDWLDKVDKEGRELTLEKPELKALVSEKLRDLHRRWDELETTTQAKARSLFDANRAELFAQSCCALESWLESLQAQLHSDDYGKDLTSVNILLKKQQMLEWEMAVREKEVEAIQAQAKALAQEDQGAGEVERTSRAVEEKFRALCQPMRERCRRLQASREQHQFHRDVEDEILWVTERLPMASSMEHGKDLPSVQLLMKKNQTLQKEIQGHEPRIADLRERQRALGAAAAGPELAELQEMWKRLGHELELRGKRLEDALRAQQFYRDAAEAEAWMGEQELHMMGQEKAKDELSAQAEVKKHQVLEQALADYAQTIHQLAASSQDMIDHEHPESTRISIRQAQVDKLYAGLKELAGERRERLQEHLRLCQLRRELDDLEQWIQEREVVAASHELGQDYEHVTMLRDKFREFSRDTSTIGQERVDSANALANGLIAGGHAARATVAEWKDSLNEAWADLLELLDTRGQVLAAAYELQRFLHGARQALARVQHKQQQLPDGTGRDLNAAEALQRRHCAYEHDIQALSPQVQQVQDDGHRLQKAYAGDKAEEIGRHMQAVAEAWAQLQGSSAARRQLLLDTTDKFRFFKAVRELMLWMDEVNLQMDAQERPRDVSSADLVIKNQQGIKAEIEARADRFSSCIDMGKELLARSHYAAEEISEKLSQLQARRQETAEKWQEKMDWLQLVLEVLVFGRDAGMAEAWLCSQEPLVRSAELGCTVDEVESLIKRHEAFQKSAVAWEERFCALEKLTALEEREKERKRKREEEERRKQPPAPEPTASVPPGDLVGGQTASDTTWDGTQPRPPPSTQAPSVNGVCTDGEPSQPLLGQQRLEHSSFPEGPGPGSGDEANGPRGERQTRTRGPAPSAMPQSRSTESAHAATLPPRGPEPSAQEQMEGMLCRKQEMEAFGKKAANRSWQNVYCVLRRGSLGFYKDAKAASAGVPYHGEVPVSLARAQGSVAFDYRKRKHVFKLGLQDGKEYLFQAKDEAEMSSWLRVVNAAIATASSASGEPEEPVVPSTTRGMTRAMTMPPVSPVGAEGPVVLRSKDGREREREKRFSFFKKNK
UniProt O00411: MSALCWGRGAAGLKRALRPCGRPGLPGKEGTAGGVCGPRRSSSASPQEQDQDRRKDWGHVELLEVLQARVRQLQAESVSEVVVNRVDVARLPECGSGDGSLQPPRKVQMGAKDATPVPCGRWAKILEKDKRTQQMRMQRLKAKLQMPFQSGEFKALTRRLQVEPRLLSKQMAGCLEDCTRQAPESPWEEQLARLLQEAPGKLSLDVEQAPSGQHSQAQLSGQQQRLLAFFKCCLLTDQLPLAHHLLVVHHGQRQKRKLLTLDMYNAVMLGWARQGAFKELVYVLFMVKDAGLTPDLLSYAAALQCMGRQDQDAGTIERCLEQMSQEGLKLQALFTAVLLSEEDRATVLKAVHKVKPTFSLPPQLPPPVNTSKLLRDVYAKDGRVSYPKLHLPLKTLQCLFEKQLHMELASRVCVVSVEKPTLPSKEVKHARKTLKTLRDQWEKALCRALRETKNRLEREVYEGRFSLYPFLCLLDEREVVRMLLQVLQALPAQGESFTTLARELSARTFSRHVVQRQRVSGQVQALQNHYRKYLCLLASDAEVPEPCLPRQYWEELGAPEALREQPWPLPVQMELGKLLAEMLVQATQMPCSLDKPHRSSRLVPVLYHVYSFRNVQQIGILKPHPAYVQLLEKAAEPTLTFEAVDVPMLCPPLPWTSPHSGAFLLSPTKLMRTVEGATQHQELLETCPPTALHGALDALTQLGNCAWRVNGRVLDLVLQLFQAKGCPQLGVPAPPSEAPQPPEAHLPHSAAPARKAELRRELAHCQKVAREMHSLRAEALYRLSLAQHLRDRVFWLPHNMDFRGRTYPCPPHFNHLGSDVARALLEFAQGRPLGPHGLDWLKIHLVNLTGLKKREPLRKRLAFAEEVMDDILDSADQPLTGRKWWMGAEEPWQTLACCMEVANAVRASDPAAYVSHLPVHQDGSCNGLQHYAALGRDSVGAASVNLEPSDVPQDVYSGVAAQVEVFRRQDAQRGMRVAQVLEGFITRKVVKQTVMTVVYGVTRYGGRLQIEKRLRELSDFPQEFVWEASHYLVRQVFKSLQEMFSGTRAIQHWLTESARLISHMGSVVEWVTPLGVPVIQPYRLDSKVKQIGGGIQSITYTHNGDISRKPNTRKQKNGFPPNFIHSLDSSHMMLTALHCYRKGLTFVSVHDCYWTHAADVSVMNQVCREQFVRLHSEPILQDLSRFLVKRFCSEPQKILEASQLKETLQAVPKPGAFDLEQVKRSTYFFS
UniProt O15287: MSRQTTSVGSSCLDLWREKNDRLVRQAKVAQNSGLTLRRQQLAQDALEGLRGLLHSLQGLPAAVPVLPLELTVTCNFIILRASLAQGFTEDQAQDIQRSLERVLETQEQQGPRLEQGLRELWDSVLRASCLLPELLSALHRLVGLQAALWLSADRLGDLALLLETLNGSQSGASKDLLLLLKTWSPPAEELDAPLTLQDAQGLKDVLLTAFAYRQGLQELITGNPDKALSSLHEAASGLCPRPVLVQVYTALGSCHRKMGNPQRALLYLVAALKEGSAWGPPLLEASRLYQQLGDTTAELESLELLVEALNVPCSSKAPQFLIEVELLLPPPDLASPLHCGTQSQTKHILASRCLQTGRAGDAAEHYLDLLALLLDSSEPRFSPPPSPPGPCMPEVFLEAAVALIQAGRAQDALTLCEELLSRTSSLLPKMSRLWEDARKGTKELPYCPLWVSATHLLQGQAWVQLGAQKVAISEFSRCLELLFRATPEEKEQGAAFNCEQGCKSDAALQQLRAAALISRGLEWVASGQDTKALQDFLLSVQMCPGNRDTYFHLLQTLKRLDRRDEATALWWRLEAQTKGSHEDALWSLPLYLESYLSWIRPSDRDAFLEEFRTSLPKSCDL
UniProt O00233: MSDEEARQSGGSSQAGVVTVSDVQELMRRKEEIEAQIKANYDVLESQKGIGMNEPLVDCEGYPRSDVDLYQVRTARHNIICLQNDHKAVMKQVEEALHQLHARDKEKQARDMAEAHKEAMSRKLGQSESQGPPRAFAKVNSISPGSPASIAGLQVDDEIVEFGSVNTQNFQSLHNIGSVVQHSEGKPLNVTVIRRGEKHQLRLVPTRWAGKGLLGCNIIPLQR

Row | Target | log2 ratio of iodoacetamide-alkyne labeling
1 | PSMA7 C63 (UniProt O14818) | inactive: 0.0314
2 | IRS4 C314 (UniProt O14654) | inactive: -0.0963
3 | EEF2K C482 (UniProt O00418) | inactive: 0.372
4 | TXNDC9 C94 (UniProt O14530) | inactive: 0.214
5 | SNAP23 C112 (UniProt O00161) | inactive: 0.446
6 | PPM1G C13 (UniProt O15355) | inactive: 0.246
7 | PFAS C66 (UniProt O15067) | inactive: -0.0482
8 | SPTBN2 C1140 (UniProt O15020) | inactive: 0.0946
9 | CLIC1 C59 (UniProt O00299) | inactive: -0.0618
10 | UniProt O00148_C164 | inactive: 0.189
11 | POLRMT C650 (UniProt O00411) | inactive: -0.0644
12 | FANCG C417 (UniProt O15287) | inactive: 0.479
13 | PPP6C C192 (UniProt O00743) | inactive: -0.0767
14 | POM121C C438 (UniProt A8CG34) | inactive: 0.0455
15 | PSMD9 C216 (UniProt O00233) | inactive: 0.00303

In a second layout: entries from further up.
Row	Target	log2 ratio of iodoacetamide-alkyne labeling
4	TXNDC9 C94 (UniProt O14530)	inactive: 0.214
5	SNAP23 C112 (UniProt O00161)	inactive: 0.446
6	PPM1G C13 (UniProt O15355)	inactive: 0.246

From the supplement of paper PMC11006884
